According to PubChem BioAssay AID977622 (Broad Institute, 2014):
The other results are listed elsewhere or left out. These are further read-outs of the screen, such as a control signal, another cell line or another target. No call is given for them.

How the values were obtained:
[1] = growth inhibition of wild-type GFP E. coli, dose response, h38 mutant RFP, cherry-pick (AID 977622); conditions: E. coli mixed culture, 24 h, total growth OD600 at 50 uM
[2] = system: E. coli h38 humanized mutant ribosome RFP fluorescence, mixed culture, 24 h; experiment: as above; conditions: h38 mutant RFP at 50 uM

| Compound | activity change [1] [%] | activity change [2] [%] |
| --- | --- | --- |
| COc1ccccc1NS(=O)(=O)c1cc(NC(=O)CNC(=O)c2ccccc2)ccc1C | -70 | -16.4 |
| CCOc1ccc2oc(C(=O)NC3CCN(Cc4ccccc4)CC3)c(C)c2c1 | -20.6 | 12.3 |
| CCOc1ccc(OCCn2c(=S)[nH]c3c(N)ncnc32)cc1 | -49.8 | 56.2 |
| COc1ccc(OC2C(=O)N(Cc3ccc4c(c3)OCO4)C2c2cccs2)cc1 (centres undefined) | -36.6 | 33.2 |
| COc1ccc(-c2nnc(COc3ccc(Br)cc3C)o2)cc1 | -49.8 | -11.2 |
| C=CCn1c(SCC(=O)Nc2ccc3c(c2)OCCO3)nnc1-c1ccco1 | -15.1 | 12.9 |
| COc1ccccc1CN1Cc2ccccc2Oc2ccccc2S1(=O)=O | – | -13.1 |
| CCC(C(=O)NC1CCCC1)n1c(-c2ccnc3ccccc23)nc2ccccc21 (centres undefined) | -37.9 | -22.9 |
| CN(CCOc1ccccc1)C(=O)c1ccc(OC2CCN(C(=O)C3CC3)CC2)cc1 | -36.7 | -2.08 |
| CN(C)CCCN(C(=O)CCSc1ccccc1)c1nc2cc3c(cc2s1)OCO3 | -28 | 6.54 |
| CC(C)Sc1sc(C(=O)O)c(-c2ccc(Cl)cc2)c1C#N | -88.4 | -13 |
| COc1ccc(CNS(=O)(=O)c2ccc3c(c2)NC(=O)C(C)S3)cc1 (centres undefined) | -34.3 | -26.2 |
| O=C(Nc1cc(F)ccc1F)N1C[C@@H]2[C@H](c3ccccc31)[C@H](CO)N2Cc1ccncc1 | -92.6 | -10.5 |
| CCOc1ccc(S(=O)(=O)N(C)c2ccc(OCC(=O)Nc3ccc4[nH]c(=O)[nH]c4c3)cc2)cc1 | -49.8 | 1.75 |
| Cc1cccc(NC(=O)COc2cccc3c2CCNC3=O)c1 | 15.2 | 12 |
| O=C(NCCCN1CCOCC1)c1sc2cc([N+](=O)[O-])ccc2c1Cl | 1.03 | – |
| O=C(CCCn1c(=S)[nH]c2ccsc2c1=O)Nc1ccc2c(c1)OCCO2 | -58.3 | -5.85 |
| COC(=O)c1sccc1NC(=O)Cn1nnc(-c2ccccc2C)n1 | -38.9 | -12.2 |
| COc1ccc(S(=O)(=O)n2cccc2)cc1 | -6.73 | 0.916 |
| O=C(Nc1ccc(Cl)cc1)N1C[C@H]2[C@@H](c3ccccc31)[C@H](CO)N2C(=O)c1ccccn1 | -56.4 | – |
| CCCCc1ccc(S(=O)(=O)Nc2ccc(C)c(NS(C)(=O)=O)c2)cc1 | -47.2 | -14.8 |

| Compound | activity change [1] [%] | activity change [2] [%] |
| --- | --- | --- |
| Cc1onc(-c2c(Cl)cccc2Cl)c1C(=O)Nc1ccc(Cl)cn1 | -7.94 | 15.2 |
| C[C@@H]1CN([C@H](C)CO)C(=O)c2c(c3ccccc3n2C)-c2ccccc2CO[C@@H]1CN(C)C(=O)CCN(C)C | -2.97 | 2.51 |
| C[C@@H]1CN([C@@H](C)CO)C(=O)c2cccc(NC(=O)c3nc4ccccc4s3)c2O[C@@H]1CN(C)CC1CC1 | -8.17 | 2.18 |
| Nc1nc(Nc2ccccc2F)nc(N2CCOCC2)c1[N+](=O)[O-] | -3.7 | 6.83 |
| CCn1c(CCCOc2ccc(Cl)cc2Cl)n[nH]c1=S | -82.1 | -28.8 |
| CCc1nnc(NS(=O)(=O)c2ccc(NC(=O)c3cc(Cl)ccc3[N+](=O)[O-])cc2)s1 | -40.3 | – |
| O=C(Nc1ccc(Cl)c(Cl)c1)N[C@@H]1CC[C@@H](CCn2cc(C3CCCCC3)nn2)O[C@H]1CO | -19 | -11.8 |
| COc1cccc(S(=O)(=O)N2CCCCN3[C@H](CO)[C@H](c4ccc(C5=CCCCC5)cc4)[C@H]3C2)c1 | -53.4 | -35.4 |
| CC(C)Oc1cccc(C(=O)C2CCCN(C(=O)c3cc(C(F)(F)F)[nH]n3)C2)c1 (centres undefined) | -52.8 | -5.69 |
| O=C(NCc1ccc2c(c1)OCO2)C1CCCN1S(=O)(=O)c1ccc(Cl)cc1 (centres undefined) | -25.6 | 31.4 |
| Cc1noc(NS(=O)(=O)c2ccc(NC(=O)c3cc(-c4ccccc4Cl)nc4ccccc34)cc2)c1C | -35.9 | -30.4 |
| Cc1nc(N2CCCCC2)c(C#N)c(C)c1[N+](=O)[O-] | -70.8 | – |
| Cc1cccc(C)c1Nc1ncnc2ccccc12 | -39.6 | -28.1 |
| COc1cc[n+]([O-])cc1[N+](=O)[O-] | -3.57 | – |
| O=C(Cc1ccc(NC(=O)C2CCCN(C(=O)CCc3ccccc3)C2)cc1)Nc1cccc(C(=O)N2CCCC2)c1 (centres undefined) | -23.2 | -9.07 |
| COc1ccc(C(=O)COc2ccc(F)cc2)c(O)c1 | -0.444 | -11.1 |
| COc1ccccc1CC(=O)NCc1csc(-c2cccs2)n1 | – | 1.76 |
| COc1ccc(-c2csc(NC(=O)c3ccoc3C)n2)cc1 | -20.7 | -19.1 |
| Cc1noc(C)c1NC(=O)Nc1ccc2c(c1)C(=O)N([C@@H](C)CO)C[C@H](C)[C@H](CN(C)C(=O)Nc1ccc3c(c1)OCO3)OCCCC[C@H](C)O2 | -4.81 | 20.2 |
| O=C(NOCc1ccccc1)c1coc(-c2ccccc2)n1 | -14.1 | 3.23 |
| CS(=O)(=O)N(CC(=O)N1CCc2ccccc2C1)c1ccc(Br)cc1 | -45.2 | -10.1 |

| Compound | activity change [1] [%] | activity change [2] [%] |
| --- | --- | --- |
| COc1cccc(NC(=O)C2CCC(CNS(=O)(=O)c3cccs3)CC2)c1 (centres undefined) | -49.9 | -21.9 |
| CC(C)(C)c1ccc(N2C(=O)CSC2c2cccnc2)cc1 (centres undefined) | -27.7 | 39.4 |
| CC1CCCCN1C(=O)C1CCCN(S(=O)(=O)c2cccc3nsnc23)C1 (centres undefined) | -38.1 | -29.6 |
| O=C(C[C@@H]1CC[C@@H]2[C@H](COC[C@H](O)CN2C(=O)Nc2ccc(Cl)cc2)O1)N1CCCCC1 | -62.7 | 74.9 |
| O=C(Nc1ccc(Cl)c(Cl)c1)N[C@H]1CC[C@@H](CCn2cc(C3CCCCC3)nn2)O[C@@H]1CO | -76.2 | 14.9 |
| O=C(Nc1ccccc1Cl)N1C[C@H]2[C@@H](c3ccccc31)[C@H](CO)N2Cc1ccccc1 | -73.4 | 56.4 |
| C[C@@H]1CN([C@@H](C)CO)C(=O)c2cccc(NC(=O)Nc3ccccc3)c2O[C@@H]1CN(C)S(=O)(=O)c1ccc(Cl)cc1 | -82.4 | 7.93 |
| O=C(NCc1cccnc1)c1ccc(COc2ccc3c(c2)CCC3)o1 | -47.2 | -7.28 |
| CCOC(=O)C1CCCN(Cc2c(Cl)cccc2Cl)C1 (centres undefined) | -3.35 | -1.64 |
| COc1ccccc1-c1cc2nc(NCCc3ccncc3)ccn2n1 | -38.2 | -5.89 |
| Cc1ccc2ccccc2c1CSc1nc(N)nc2c1ncn2CC(C)C | -44.1 | -28.3 |
| C=CCn1c(SCC(=O)N2CCCC2=O)nc2sc(CC)cc2c1=O | 6.21 | 69.5 |
| O=C(Nc1ccc(Cl)cc1)N1C[C@@H]2[C@H](c3ccccc31)[C@@H](CO)N2C(=O)c1ccccn1 | -53.7 | 59.2 |
| O=[N+]([O-])c1ccc(/C=C/c2ccc3cccc([N+](=O)[O-])c3n2)cc1 | -2.69 | – |
| COc1ccc(N2C(=O)C3C(C2=O)C3(c2ccccc2)c2ccccc2)cc1 (centres undefined) | -59.9 | – |
| CCOc1ccc(CN(C)C(=O)c2ccc(NS(=O)(=O)c3ccc4[nH]c(=O)[nH]c4c3)cc2)cc1 | -24.4 | 1.49 |
| CCCC(=O)N(CCc1ccc(OC)cc1)Cc1nc2ccccc2c(=O)[nH]1 | – | 7.93 |
| CCn1ccnc1CN1CCCC(C(=O)c2ccc3cc(OC)ccc3c2)C1 (centres undefined) | -21.2 | 37.2 |
| Cc1noc(C)c1S(=O)(=O)N(Cc1ccccc1)C(C)C | -11.3 | -14.6 |
| CCOC(=O)c1cc2sccc2n1CCCN1C(=O)c2ccccc2C1=O | -53.1 | – |
| Cc1ccc(N(CC(O)Cn2nc(C)cc2C)S(=O)(=O)c2ccc3ccccc3c2)cc1 (centres undefined) | -55.4 | 6.81 |

| Compound | activity change [1] [%] | activity change [2] [%] |
| --- | --- | --- |
| CC1CCN(CC(O)COCCC23CC4CC(CC(C4)C2)C3)CC1 (centres undefined) | – | -37.2 |
| O=C(CCCOc1ccc(Cl)cc1Cl)Nc1ccccc1C(=O)O | -63.8 | -2.49 |
| Cc1nc(-c2ccc([N+](=O)[O-])cc2)c(-c2ccccc2)o1 | -11.2 | -31.7 |
| O=C(NCc1ccccc1Cl)[C@H]1CCCN1C(=O)[C@H]1CCCN1C(=O)c1cccc2ccccc12 | -40.8 | -2.66 |
| CC(C)CNC(=O)c1cccc(NC(=O)C(C)Oc2ccccc2)c1 (centres undefined) | -14 | -22.7 |
| C[C@@H]1CCCCO[C@H](CN(C)CC2CC2)[C@H](C)CN([C@@H](C)CO)C(=O)c2cc(NC(=O)Nc3cccc4ccccc34)ccc2O1 | -98.9 | -54.1 |
| Cc1nn2c(NCc3ccccn3)cc(C(C)C)nc2c1-c1ccccc1 | -32.3 | – |
| COc1ccc(-c2nc3c(C)cc(Br)cn3c2Cc2ccc(C)cc2)cc1OC | -49.7 | 17.7 |
| O=C(C[C@H]1CC[C@@H]2[C@H](COC[C@H](O)CN2C(=O)Nc2ccc(Cl)cc2)O1)NCC1CC1 | -83.1 | 45.4 |
| CN1c2ccc(C#Cc3cccnc3)cc2[C@@H]2[C@@H](CCN2C(=O)c2cccc(F)c2)[C@H]1CO | -43.9 | -22.2 |
| Cc1nc2ncnn2c(N2CCC(C(=O)NC3CCCC3)CC2)c1Cc1ccccc1 | -28.8 | -38.5 |
| C[C@@H]1CCCCO[C@@H](CN(C)C(=O)CCCN(C)C)[C@H](C)CN([C@H](C)CO)C(=O)c2cc(NC(=O)Nc3cccc4ccccc34)ccc2O1 | -10.7 | 9.41 |
| CCc1cccc2c1Sc1ccccc1CC2N1CCNCC1 (centres undefined) | -98.9 | -64.4 |
| C[C@@H]1CCCCO[C@H](CN(C)CC2CCCCC2)[C@H](C)CN([C@@H](C)CO)C(=O)c2cc(NC(=O)Nc3cccc4ccccc34)ccc2O1 | -67.7 | 142 |
| Cc1nn(-c2ccccc2)c(C)c1NC(=O)COc1ccc2ccccc2c1 | -58.4 | – |
| COC(=O)CN1C(=S)N(c2ccc(Cl)cc2)C(=O)C1CC(=O)Nc1ccc(F)cc1 (centres undefined) | -43.6 | -30.4 |
| O=[N+]([O-])c1ccc(O)c(CSc2nnnn2-c2ccccc2)c1 | -4.26 | 33.4 |
| O=C(COn1nnc2ccc(C(F)(F)F)cc21)Nc1c(Cl)cccc1Cl | -31.7 | 22.2 |
| Cc1ccc(CNC(=O)c2ccc(Br)o2)cc1 | -40.7 | 56.4 |
| O=S(=O)(Nc1ccc(-c2cnco2)cc1)c1ccccc1 | -28.2 | -8.88 |
| O=C1c2ccccc2S(=O)(=O)c2cc(N3CCC(C(=O)N4CCCCC4)CC3)ccc21 | -34.2 | -22.3 |

21 structures already listed, arranged by length of the SMILES, descending.

| Compound | activity change [1] [%] | activity change [2] [%] |
| --- | --- | --- |
| Cc1noc(C)c1NC(=O)Nc1ccc2c(c1)C(=O)N([C@@H](C)CO)C[C@H](C)[C@H](CN(C)C(=O)Nc1ccc3c(c1)OCO3)OCCCC[C@H](C)O2 | -4.81 | 20.2 |
| C[C@@H]1CCCCO[C@@H](CN(C)C(=O)CCCN(C)C)[C@H](C)CN([C@H](C)CO)C(=O)c2cc(NC(=O)Nc3cccc4ccccc34)ccc2O1 | -10.7 | 9.41 |
| C[C@@H]1CCCCO[C@H](CN(C)CC2CCCCC2)[C@H](C)CN([C@@H](C)CO)C(=O)c2cc(NC(=O)Nc3cccc4ccccc34)ccc2O1 | -67.7 | 142 |
| COc1cccc(S(=O)(=O)N2CCCCN3[C@H](CO)[C@H](c4ccc(C5=CCCCC5)cc4)[C@H]3C2)c1 | -53.4 | -35.4 |
| O=C(Nc1ccc(Cl)c(Cl)c1)N[C@@H]1CC[C@@H](CCn2cc(C3CCCCC3)nn2)O[C@H]1CO | -19 | -11.8 |
| Cc1noc(NS(=O)(=O)c2ccc(NC(=O)c3cc(-c4ccccc4Cl)nc4ccccc34)cc2)c1C | -35.9 | -30.4 |
| CC(C)Oc1cccc(C(=O)C2CCCN(C(=O)c3cc(C(F)(F)F)[nH]n3)C2)c1 (centres undefined) | -52.8 | -5.69 |
| COC(=O)CN1C(=S)N(c2ccc(Cl)cc2)C(=O)C1CC(=O)Nc1ccc(F)cc1 (centres undefined) | -43.6 | -30.4 |
| O=C(NCc1ccc2c(c1)OCO2)C1CCCN1S(=O)(=O)c1ccc(Cl)cc1 (centres undefined) | -25.6 | 31.4 |
| CCC(C(=O)NC1CCCC1)n1c(-c2ccnc3ccccc23)nc2ccccc21 (centres undefined) | -37.9 | -22.9 |
| O=C(CCCn1c(=S)[nH]c2ccsc2c1=O)Nc1ccc2c(c1)OCCO2 | -58.3 | -5.85 |
| COc1ccc(CNS(=O)(=O)c2ccc3c(c2)NC(=O)C(C)S3)cc1 (centres undefined) | -34.3 | -26.2 |
| CS(=O)(=O)N(CC(=O)N1CCc2ccccc2C1)c1ccc(Br)cc1 | -45.2 | -10.1 |
| Cc1nc(-c2ccc([N+](=O)[O-])cc2)c(-c2ccccc2)o1 | -11.2 | -31.7 |
| Nc1nc(Nc2ccccc2F)nc(N2CCOCC2)c1[N+](=O)[O-] | -3.7 | 6.83 |
| CCOC(=O)c1cc2sccc2n1CCCN1C(=O)c2ccccc2C1=O | -53.1 | – |
| CC(C)CNC(=O)c1cccc(NC(=O)C(C)Oc2ccccc2)c1 (centres undefined) | -14 | -22.7 |
| COC(=O)c1sccc1NC(=O)Cn1nnc(-c2ccccc2C)n1 | -38.9 | -12.2 |
| COc1ccccc1CN1Cc2ccccc2Oc2ccccc2S1(=O)=O | – | -13.1 |
| CCn1c(CCCOc2ccc(Cl)cc2Cl)n[nH]c1=S | -82.1 | -28.8 |
| COc1cc[n+]([O-])cc1[N+](=O)[O-] | -3.57 | – |
